Experimental data as given in article PMC10192418, “High-affinity peptides developed against calprotectin and their application as synthetic ligands in diagnostic assays” (Nature Communications, 2023).

Target: non-tetrameric mutant (E78A) of the recombinant calprotectin (human)
Assay: fluorescence polarisation; calprotectin serially diluted, fluorescent peptide at 20 nM; 20 mM HEPES, 100 mM NaCl, 2 mM CaCl2, pH 7.5, 1 mM DTT, 0.01% Tween-20; tetrameric calprotectin; Kd calculated on the concentration of the heterodimer (1:1 heterodimer:peptide); both purified

B1: linear peptide 3 (peptide)
peptide: RSPESVAFPMFQSHWYSG
modifications: 5(6)-carboxyfluorescein on the N-terminus
In the case of B1, the binding is reported as “no binding”.

No constants are given. Whether binding was seen depends on the method and setting.
